# Measured values reported in the supplement of paper PMC11438910.
# Some of the results follow. Only a few entries rise above the background.
# B1: 4-80.4 (protein)
# chain 1: QVQLQESGPGLVKPSETLSLTCAVSGGSFSSYWWSWIRQSPGKGLEWIGEISGNSGSTNYNPSLKSRVTISKDASKNQFSLKLSSVTAADTAVYYCARYKEYWGQGVLVTVSS
# chain 2: DVVMTQSPLSLLITPGQPASISCRSSQSLVHSNGNTYLSWYQQKPGQPPRRLLYEVSNRDSGVPDRFSGSGAGTDFTLKISRVEAEDVGVYYCGQGTHLPYSFGQGTKVEIK
# Key:
# Assay in all cases: fluorescence intensity of antibody binding to polysaccharide-coupled beads; higher = stronger binding
# [1] = target: pneumococcal polysaccharide Pn11F
# [2] = target: pneumococcal polysaccharide Pn12A
# [3] = target: pneumococcal polysaccharide Pn12B
# [4] = target: pneumococcal polysaccharide Pn12F
# [5] = target: pneumococcal polysaccharide Pn13
# [6] = target: pneumococcal polysaccharide Pn14
# [7] = target: pneumococcal polysaccharide Pn15A
# [8] = target: pneumococcal polysaccharide Pn15B
# [9] = target: pneumococcal polysaccharide Pn15C
# [10] = target: pneumococcal polysaccharide Pn15F
# [11] = target: pneumococcal polysaccharide Pn16A
# [12] = target: pneumococcal polysaccharide Pn16F
# [13] = target: pneumococcal polysaccharide Pn17A
# [14] = target: pneumococcal polysaccharide Pn17F
# [15] = target: pneumococcal polysaccharide Pn18A
# [16] = target: pneumococcal polysaccharide Pn18B
# [17] = target: pneumococcal polysaccharide Pn18C
# [18] = target: pneumococcal polysaccharide Pn18F
# [19] = target: pneumococcal polysaccharide Pn19A
# [20] = target: pneumococcal polysaccharide Pn19B
# [21] = target: pneumococcal polysaccharide Pn19C
# [22] = target: pneumococcal polysaccharide Pn19F
# [23] = target: pneumococcal polysaccharide Pn2
# [24] = antibody concentration 2.8593 ng/mL
# [25] = antibody concentration 15.2894 ng/mL
# [26] = antibody concentration 81.7561 ng/mL
# [27] = antibody concentration 437.17 ng/mL
# [28] = antibody concentration 2337.65 ng/mL
# [29] = antibody concentration 12500 ng/mL
# [30] = antibody concentration 0.1 ng/mL
# [31] = antibody concentration 0.534724 ng/mL
binder,measurement,setting,value
B1,fluorescence intensity,[1]; [24],13.8 MFI
same,fluorescence intensity,[1]; [25],14.8 MFI
same,fluorescence intensity,[1]; [26],13 MFI
same,fluorescence intensity,[1]; [27],15.5 MFI
same,fluorescence intensity,[1]; [28],16.5 MFI
same,fluorescence intensity,[1]; [29],19.5 MFI
same,fluorescence intensity,[2]; [30],16 MFI
same,fluorescence intensity,[2]; [31],15.5 MFI
same,fluorescence intensity,[2]; [24],15.5 MFI
same,fluorescence intensity,[2]; [25],15.5 MFI
same,fluorescence intensity,[2]; [26],15 MFI
same,fluorescence intensity,[2]; [27],15.5 MFI
same,fluorescence intensity,[2]; [28],17 MFI
same,fluorescence intensity,[2]; [29],24.5 MFI
same,fluorescence intensity,[3]; [30],14 MFI
same,fluorescence intensity,[3]; [31],15.8 MFI
same,fluorescence intensity,[3]; [24],14.5 MFI
same,fluorescence intensity,[3]; [25],15.8 MFI
same,fluorescence intensity,[3]; [26],15.5 MFI
same,fluorescence intensity,[3]; [27],16 MFI
same,fluorescence intensity,[3]; [28],16.5 MFI
same,fluorescence intensity,[3]; [29],26 MFI
same,fluorescence intensity,[4]; [30],18.5 MFI
same,fluorescence intensity,[4]; [31],19 MFI
same,fluorescence intensity,[4]; [24],18.8 MFI
same,fluorescence intensity,[4]; [25],18 MFI
same,fluorescence intensity,[4]; [26],18 MFI
same,fluorescence intensity,[4]; [27],18 MFI
same,fluorescence intensity,[4]; [28],21.5 MFI
same,fluorescence intensity,[4]; [29],32.2 MFI
same,fluorescence intensity,[5]; [30],19 MFI
same,fluorescence intensity,[5]; [31],18.5 MFI
same,fluorescence intensity,[5]; [24],19 MFI
same,fluorescence intensity,[5]; [25],19.8 MFI
same,fluorescence intensity,[5]; [26],19 MFI
same,fluorescence intensity,[5]; [27],18.8 MFI
same,fluorescence intensity,[5]; [28],19.5 MFI
same,fluorescence intensity,[5]; [29],27.5 MFI
same,fluorescence intensity,[6]; [30],14.5 MFI
same,fluorescence intensity,[6]; [31],14 MFI
same,fluorescence intensity,[6]; [24],13.5 MFI
same,fluorescence intensity,[6]; [25],13 MFI
same,fluorescence intensity,[6]; [26],14.5 MFI
same,fluorescence intensity,[6]; [27],15 MFI
same,fluorescence intensity,[6]; [28],17.8 MFI
same,fluorescence intensity,[6]; [29],61.2 MFI
same,fluorescence intensity,[7]; [30],12.5 MFI
same,fluorescence intensity,[7]; [31],12.5 MFI
same,fluorescence intensity,[7]; [24],13 MFI
same,fluorescence intensity,[7]; [25],13.5 MFI
same,fluorescence intensity,[7]; [26],12.5 MFI
same,fluorescence intensity,[7]; [27],13.5 MFI
same,fluorescence intensity,[7]; [28],13 MFI
same,fluorescence intensity,[7]; [29],15 MFI
same,fluorescence intensity,[8]; [30],18 MFI
same,fluorescence intensity,[8]; [31],17 MFI
same,fluorescence intensity,[8]; [24],17.5 MFI
same,fluorescence intensity,[8]; [25],18.8 MFI
same,fluorescence intensity,[8]; [26],18.5 MFI
same,fluorescence intensity,[8]; [27],19.8 MFI
same,fluorescence intensity,[8]; [28],20 MFI
same,fluorescence intensity,[8]; [29],26 MFI
same,fluorescence intensity,[9]; [30],16 MFI
same,fluorescence intensity,[9]; [31],18.5 MFI
same,fluorescence intensity,[9]; [24],17.2 MFI
same,fluorescence intensity,[9]; [25],18.5 MFI
same,fluorescence intensity,[9]; [26],16.5 MFI
same,fluorescence intensity,[9]; [27],17.5 MFI
same,fluorescence intensity,[9]; [28],19 MFI
same,fluorescence intensity,[9]; [29],21.5 MFI
same,fluorescence intensity,[10]; [30],17 MFI
same,fluorescence intensity,[10]; [31],16.5 MFI
same,fluorescence intensity,[10]; [24],17.5 MFI
same,fluorescence intensity,[10]; [25],17.2 MFI
same,fluorescence intensity,[10]; [26],16.5 MFI
same,fluorescence intensity,[10]; [27],18 MFI
same,fluorescence intensity,[10]; [28],17.5 MFI
same,fluorescence intensity,[10]; [29],23.8 MFI
same,fluorescence intensity,[11]; [30],13.8 MFI
same,fluorescence intensity,[11]; [31],14.5 MFI
same,fluorescence intensity,[11]; [24],14.2 MFI
same,fluorescence intensity,[11]; [25],15.5 MFI
same,fluorescence intensity,[11]; [26],13.5 MFI
same,fluorescence intensity,[11]; [27],15 MFI
same,fluorescence intensity,[11]; [28],16.5 MFI
same,fluorescence intensity,[11]; [29],20.5 MFI
same,fluorescence intensity,[12]; [30],24.5 MFI
same,fluorescence intensity,[12]; [31],23.5 MFI
same,fluorescence intensity,[12]; [24],25.5 MFI
same,fluorescence intensity,[12]; [25],23.2 MFI
same,fluorescence intensity,[12]; [26],24 MFI
same,fluorescence intensity,[12]; [27],26.5 MFI
same,fluorescence intensity,[12]; [28],28 MFI
same,fluorescence intensity,[12]; [29],33.5 MFI
same,fluorescence intensity,[13]; [30],21.5 MFI
same,fluorescence intensity,[13]; [31],20.8 MFI
same,fluorescence intensity,[13]; [24],20.5 MFI
same,fluorescence intensity,[13]; [25],22.5 MFI
same,fluorescence intensity,[13]; [26],21.8 MFI
same,fluorescence intensity,[13]; [27],22 MFI
same,fluorescence intensity,[13]; [28],21.5 MFI
same,fluorescence intensity,[13]; [29],23.5 MFI
same,fluorescence intensity,[14]; [30],26.8 MFI
same,fluorescence intensity,[14]; [31],26.5 MFI
same,fluorescence intensity,[14]; [24],26 MFI
same,fluorescence intensity,[14]; [25],26.5 MFI
same,fluorescence intensity,[14]; [26],25.5 MFI
same,fluorescence intensity,[14]; [27],27.2 MFI
same,fluorescence intensity,[14]; [28],28 MFI
same,fluorescence intensity,[14]; [29],29.5 MFI
same,fluorescence intensity,[15]; [30],24.5 MFI
same,fluorescence intensity,[15]; [31],24 MFI
same,fluorescence intensity,[15]; [24],23.5 MFI
same,fluorescence intensity,[15]; [25],23.2 MFI
same,fluorescence intensity,[15]; [26],23.5 MFI
same,fluorescence intensity,[15]; [27],24 MFI
same,fluorescence intensity,[15]; [28],24.5 MFI
same,fluorescence intensity,[15]; [29],27.5 MFI
same,fluorescence intensity,[16]; [30],30 MFI
same,fluorescence intensity,[16]; [31],31.5 MFI
same,fluorescence intensity,[16]; [24],30.5 MFI
same,fluorescence intensity,[16]; [25],31 MFI
same,fluorescence intensity,[16]; [26],30.5 MFI
same,fluorescence intensity,[16]; [27],31.5 MFI
same,fluorescence intensity,[16]; [28],34.5 MFI
same,fluorescence intensity,[16]; [29],39 MFI
same,fluorescence intensity,[17]; [30],18 MFI
same,fluorescence intensity,[17]; [31],19.5 MFI
same,fluorescence intensity,[17]; [24],17.5 MFI
same,fluorescence intensity,[17]; [25],18.5 MFI
same,fluorescence intensity,[17]; [26],19 MFI
same,fluorescence intensity,[17]; [27],18.5 MFI
same,fluorescence intensity,[17]; [28],21.8 MFI
same,fluorescence intensity,[17]; [29],32 MFI
same,fluorescence intensity,[18]; [30],22.8 MFI
same,fluorescence intensity,[18]; [31],22.5 MFI
same,fluorescence intensity,[18]; [24],24 MFI
same,fluorescence intensity,[18]; [25],22.5 MFI
same,fluorescence intensity,[18]; [26],24 MFI
same,fluorescence intensity,[18]; [27],23.5 MFI
same,fluorescence intensity,[18]; [28],27.5 MFI
same,fluorescence intensity,[18]; [29],33.5 MFI
same,fluorescence intensity,[19]; [30],18 MFI
same,fluorescence intensity,[19]; [31],18.5 MFI
same,fluorescence intensity,[19]; [24],18.2 MFI
same,fluorescence intensity,[19]; [25],18 MFI
same,fluorescence intensity,[19]; [26],19.5 MFI
same,fluorescence intensity,[19]; [27],19 MFI
same,fluorescence intensity,[19]; [28],19 MFI
same,fluorescence intensity,[19]; [29],24.5 MFI
same,fluorescence intensity,[20]; [30],28 MFI
same,fluorescence intensity,[20]; [31],30 MFI
same,fluorescence intensity,[20]; [24],29 MFI
same,fluorescence intensity,[20]; [25],28 MFI
same,fluorescence intensity,[20]; [26],30 MFI
same,fluorescence intensity,[20]; [27],31 MFI
same,fluorescence intensity,[20]; [28],36.5 MFI
same,fluorescence intensity,[20]; [29],90.2 MFI
same,fluorescence intensity,[21]; [30],26 MFI
same,fluorescence intensity,[21]; [31],25.5 MFI
same,fluorescence intensity,[21]; [24],25.8 MFI
same,fluorescence intensity,[21]; [25],26.5 MFI
same,fluorescence intensity,[21]; [26],25.8 MFI
same,fluorescence intensity,[21]; [27],26 MFI
same,fluorescence intensity,[21]; [28],28.5 MFI
same,fluorescence intensity,[21]; [29],65.5 MFI
same,fluorescence intensity,[22]; [30],24.5 MFI
same,fluorescence intensity,[22]; [31],26 MFI
same,fluorescence intensity,[22]; [24],25.5 MFI
same,fluorescence intensity,[22]; [25],24.5 MFI
same,fluorescence intensity,[22]; [26],25.8 MFI
same,fluorescence intensity,[22]; [27],26.2 MFI
same,fluorescence intensity,[22]; [28],28 MFI
same,fluorescence intensity,[22]; [29],38.5 MFI
same,fluorescence intensity,[23]; [30],20 MFI
same,fluorescence intensity,[23]; [31],19 MFI
same,fluorescence intensity,[23]; [24],20 MFI
same,fluorescence intensity,[23]; [25],20 MFI
same,fluorescence intensity,[23]; [26],20.5 MFI
same,fluorescence intensity,[23]; [27],18.8 MFI

# Exported as tab-separated lines: entries from further up
binder	measurement	setting	value
B1	fluorescence intensity	[7]; [25]	13.5 MFI
same	fluorescence intensity	[7]; [26]	12.5 MFI
same	fluorescence intensity	[7]; [27]	13.5 MFI
same	fluorescence intensity	[7]; [28]	13 MFI
same	fluorescence intensity	[7]; [29]	15 MFI
